Common to all, as to type: cell-based
The nature of series [1]: Haemolysis test. Particulars: sheep, sheep red blood cells (2% blood suspension), 1.56–25 μM, 37 °C, read-out: Cytotoxicity, CC50, Sheep RBC. How it is done: The mixture was then centrifuged at 1000 g for 10 min. 75 μL of the resulting supernatant were transferred to 96-well plates and the absorbance readings obtained at 540 nm using Victor3 Multilabel Counter (PerkinElmer, Waltham, USA).

Series [2] concerns L. aethiopica promastigotes. Kind of series: Primary antipromastigote assay (resazurin based). To be noted: Leishmania aethiopica, 72 h. The method, then:
Test compounds were diluted in 96-well microculture plate containing 100 μL complete M199 medium. […] The Parasite density was kept constant at 1 × 10^5 per well. After 68 h of incubation, 10 μL of fluorochrome resazurin solution (Sigma-Aldrich, Co., St. […] The percentage of inhibition (%) was calculated for each concentration using the following formula: Inhibition%=100−Fluorescence in duplicate drug wells-Fluorescence in blank wells/Fluorescence control wells−Fluorescence in blank wells∗100
For orientation: Resazurin is reduced to fluorescent resorufin, in cell work by metabolically active cells.

Series [3] is described as follows: THP-1 cell cytotoxicity assay (resazurin). Particulars: human, THP-1 cells. The method, then: Approximately 2 × 10^5 THP-1 cell suspension were added to 96-well microplate containing serially diluted 50 μL test compounds. Microplates were then incubated for 68 h at 37 °C in a 5% CO2 air mixture. Cell viability was determined with the resazurin- based fluorescence assay measured after a total incubation time of 72 h. The estimated median cell cytotoxicity (CC50) was calculated for each concentration using the formula: Cell viability%=Fluorescence in duplicate drug wells-Fluorescence blank wells/Fluorescence in control wells−Fluorescence blank wells∗100 The selectivity index of compounds was calculated from the ratio of the CC50 value determined in THP1 cells to the IC50 value determined from the dose-response curves in promastigote and amastigote assay using the following formula. Selectivity indexSI=CC50THP1cells/IC50promastigotes or amstigotes

Read-outs that look alike come from different tables or passages of the source.

In general, CC50 refers to the concentration giving 50% cytotoxicity. In general, inhibition refers to the percentage by which the read-out fell short of the control. What is called IC50 is the concentration at which inhibition is half-maximal. For the compound `CN1CCCC1CCO[C@](C)(c1ccccc1)c1ccc(Cl)cc1` (some centres unmarked) [MMV637229], in series [1], the 50% cytotoxic concentration (CC50) at 2 h is above 25 µM. In addition, the inhibition at 1 µM in series [2] (hit map sheet with colour categories, negative values shown as 0.00, read-out: Percentage of inhibition against Leishmania aethiopica promastigotes) worked out at 83.6%; in series [2] (hit map sheet without colour categories, negative values kept, read-out: Percentage of inhibition against Leishmania aethiopica promastigotes), 83.6%. Also, the IC50 in series [2] (dose titration 0.03 to 1 μM, average of two independent experiments in triplicate, read-out: IC50 (95% CI) against Leishmania aethiopica promastigotes) stood at 0.483 µM. In series [3], this compound gave a cytotoxic concentration (CC50) at 72 h above 25 µM.

Source of the values: publication PMC8594108, “In vitro growth inhibitory activity of Medicines for Malaria Venture pathogen box compounds against Leishmania aethiopica” (BMC Pharmacology & Toxicology, 2021).
